Results are given in words; binding and its absence hold for the method and conditions named. In cells and extracts the contact can be indirect. Some binding calls cover weakened binding; strength is not graded here.
Assays:
human HIRA (human) = human HIRA (human) (UniProt P54198); test: co-immunoprecipitation from HeLa S3 total cell extracts, Western blot
[1] = molecular target: Asf1 from Xenopus laevis (endogenous, high speed egg extract) (Xenopus laevis) (UniProt Q69DB9); test: GST pull-down on Xenopus egg extract (HSE), Western blot

Amino acid sequences for entries named in this document (tags omitted). A change or cut given only in a name is not applied to a line headed by its entry.
UniProt P54198: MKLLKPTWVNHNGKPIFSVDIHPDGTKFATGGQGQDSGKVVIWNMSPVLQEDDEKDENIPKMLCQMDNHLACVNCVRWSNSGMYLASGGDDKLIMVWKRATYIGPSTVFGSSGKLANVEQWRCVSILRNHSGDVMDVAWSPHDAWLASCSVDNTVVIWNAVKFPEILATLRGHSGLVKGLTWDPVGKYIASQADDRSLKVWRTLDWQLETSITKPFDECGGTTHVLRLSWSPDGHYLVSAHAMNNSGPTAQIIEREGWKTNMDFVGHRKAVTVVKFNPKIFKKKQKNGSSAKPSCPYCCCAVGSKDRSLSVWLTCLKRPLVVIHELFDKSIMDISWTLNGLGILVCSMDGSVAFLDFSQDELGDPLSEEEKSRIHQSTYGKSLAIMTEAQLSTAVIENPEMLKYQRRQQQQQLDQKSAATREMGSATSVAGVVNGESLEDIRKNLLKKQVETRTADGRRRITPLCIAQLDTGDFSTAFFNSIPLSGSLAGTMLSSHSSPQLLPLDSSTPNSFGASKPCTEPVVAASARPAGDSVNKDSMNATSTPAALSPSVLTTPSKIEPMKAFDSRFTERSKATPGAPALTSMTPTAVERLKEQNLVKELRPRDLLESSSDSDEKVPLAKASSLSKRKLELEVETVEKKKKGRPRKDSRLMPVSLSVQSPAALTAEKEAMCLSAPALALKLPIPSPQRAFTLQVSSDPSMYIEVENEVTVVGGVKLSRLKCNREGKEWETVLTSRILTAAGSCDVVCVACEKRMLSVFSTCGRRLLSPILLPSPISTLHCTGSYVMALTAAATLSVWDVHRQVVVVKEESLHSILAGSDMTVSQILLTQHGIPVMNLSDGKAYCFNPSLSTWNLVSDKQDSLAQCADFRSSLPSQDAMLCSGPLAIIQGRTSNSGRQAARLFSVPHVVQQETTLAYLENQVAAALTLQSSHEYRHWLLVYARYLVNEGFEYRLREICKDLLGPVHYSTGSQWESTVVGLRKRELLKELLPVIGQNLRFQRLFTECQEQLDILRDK
UniProt Q69DB9: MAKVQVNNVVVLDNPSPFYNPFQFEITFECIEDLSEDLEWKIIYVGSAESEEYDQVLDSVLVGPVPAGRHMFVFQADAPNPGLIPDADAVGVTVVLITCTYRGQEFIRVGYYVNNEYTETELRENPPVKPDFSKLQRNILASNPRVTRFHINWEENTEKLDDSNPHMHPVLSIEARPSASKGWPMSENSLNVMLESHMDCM
UniProt Q9Y294: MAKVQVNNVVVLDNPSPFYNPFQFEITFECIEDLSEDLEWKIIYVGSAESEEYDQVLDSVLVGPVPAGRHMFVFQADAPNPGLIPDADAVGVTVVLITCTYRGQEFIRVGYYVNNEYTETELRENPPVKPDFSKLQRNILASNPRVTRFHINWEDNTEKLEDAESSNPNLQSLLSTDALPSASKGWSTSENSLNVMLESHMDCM

| Substance | binding (human HIRA (human)) | binding [1] |
| --- | --- | --- |
| human Asf1a (Anti-silencing function 1a) (from UniProt Q9Y294 1-204) | binds |  |
| recombinant GST HIRA B-domain (Xenopus laevis HIRA amino acid 435 to 480) (from UniProt P54198 435-480) |  | binds |

Reference: patent publication US20130149320A1 (CENTRE NATIONAL DE LA RECHERCHE SCIENTIFIQUE, published 2013)
